# Measured values: US12527788B2, “Defining RNA-small molecule affinity landscapes enables design of a small molecule inhibitor of an oncogenic non-coding RNA” (University of Florida Research Foundation, Incorporated, priority 2017, dated 2026)
# Some entries share one result that the patent states for a list of compounds.
# What was measured:
# [1] = system: 3×2 internal loop library (3×2 ILL); assay: 2DCS small molecule microarray screen against 3×2 ILL; assay type: binding
# AT-rich DNA hairpin = assay: In solution fluorescence-based binding affinity measurement
# Text: It has been difficult to identify compounds that are heterocyclic in nature that selectively recognize RNA over DNA.^5 Thus, to further gain insight into the selectivity of our RNA motif-small molecule interactions, we compared the measured affinities for selected RNA motifs to the affinities of the ligands for an AT-rich DNA hairpin, a common target of small molecules similar to those shown in FIG. 1. […] This alteration reduces DNA affinity because key stacking and hydrogen bonding interactions are not possible. […] Thus, the interactions selected via 2DCS are RNA-selective.
# Binding Affinity Measurements: An in solution, fluorescence-based assay was used to determine binding affinities by monitoring the change in fluorescence intensity of 1-FL (or 2-FL/3-FL/4-FL) as a function of RNA concentration as described previously.^18 Briefly, the RNA of interest was folded in 1× Folding Buffer (8 mM Na2HPO4, pH 7.0, 185 mM NaCl and 1 mM EDTA) by heating at 60° C. for 5 min followed by slowly cooling to room temperature on the bench top. Then, the FL-conjugated compound was added into the RNA solution to a final concentration of 100 nM. Serial dilutions were then completed using 1× Folding Buffer supplemented with 100 nM FL-conjugated compound. The solutions were incubated at room temperature for 30 min and then transferred to a well of a black 384-well plate. Fluorescence intensity was measured using a Bio-Tek FL×800 plate reader with an excitation wavelength of 485/20 nm and an emission wavelength of 528/20 nm. The change in fluorescence intensity as a function of the concentration of RNA was fit to equation 3:^9 I=I0+0.5 Δε{([FL]0+[RNA]0 +Kd)−(([FL]0+[RNA]0+Kd)^2−4[FL]0[RNA]0)^1/2} (3) where I is the observed fluorescence intensity; I0 is the fluorescence intensity in the absence of RNA; Δε is the difference between the fluorescence intensity in the absence of RNA and in the presence of infinite RNA concentration; [FL]0 is the concentration of compound; [RNA]0 is the concentration of the selected RNA; and Kd is the dissociation constant.
# [2] = system: 3×3 nucleotide internal loop library (3×3 ILL); assay: 2DCS small molecule microarray screen against 3×3 ILL; assay type: binding; settings: excess unlabeled competitor nucleic acids
SMILES,Binding of members of 3×2 ILL on the 2DCS microarray [1],Binding to the DNA hairpin (AT-rich DNA hairpin),Binding of 32P-labeled 3×3 ILL on the 2DCS microarray [2]
CN1CCN(c2ccc(-c3ccc4nc(-c5ccc(OCCCC(=O)NCCCN=[N+]=[N-])cc5)[nH]c4c3)cc2)CC1 [Compound 1],bind members of the RNA library,did not bind the DNA hairpin,
Cc1cc(-c2nc3ccc(-c4ccc(N5CCN(C)CC5)cc4)cc3[nH]2)cc(C)c1OCCCC(=O)NCCCN=[N+]=[N-] [Compound 2],bind members of the RNA library,did not bind the DNA hairpin,
CC(C)c1cc(-c2nc3ccc(-c4ccc(N5CCN(C)CC5)cc4)cc3[nH]2)cc(C(C)C)c1OCCCC(=O)NCCCN=[N+]=[N-] [Compound 3],bind members of the RNA library,did not bind the DNA hairpin,
CN1CCN(c2ccc(-c3ccc4nc(-c5cc(C(C)(C)C)c(OCCCC(=O)NCCCN=[N+]=[N-])c(C(C)(C)C)c5)[nH]c4c3)cc2)CC1 [Compound 4],bind members of the RNA library,did not bind the DNA hairpin,
[N-]=[N+]=NCCCNC(=O)CCCOc1ccc(-c2nc3ccc(-c4ccc5[nH]ccc5c4)cc3[nH]2)cc1 [Compound 5],,,No binding was observed
Cc1cc(-c2nc3ccc(-c4ccc5[nH]ccc5c4)cc3[nH]2)cc(C)c1OCCCC(=O)NCCCN=[N+]=[N-] [Compound 6],,,No binding was observed
CC(C)c1cc(-c2nc3ccc(-c4ccc5[nH]ccc5c4)cc3[nH]2)cc(C(C)C)c1OCCCC(=O)NCCCN=[N+]=[N-] [Compound 7],,,No binding was observed
CC(C)(C)c1cc(-c2nc3ccc(-c4ccc5[nH]ccc5c4)cc3[nH]2)cc(C(C)(C)C)c1OCCCC(=O)NCCCN=[N+]=[N-] [Compound 8],,,No binding was observed
